PubChem BioAssay AID493246 | Drosophila RNAi Screening Center | 2011
Assay: 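Genome-wide search for dsRNAs that reduce cell number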 (primary screen). System: Drosophila Kc and S2R+ cells. Knock-down reagent: long dsRNA against Drosophila genes. Detection: 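Cell number per well after knock-down, printed as raw plate values; calls were based on per-plate z-scores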. Reading the numbers: Kc cell number and S2R+ cell number: higher = more cells remaining. Rule for the call: 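Active when the per-plate z-score of cell number is 3 or more in the direction of fewer cells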.
The deposit covers about 21,000 reagents; shown is an unselected part of those with a known target gene and a result. Of all reagents, 429 (2%) were called active. 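Values are raw and not normalised between plates; calls rest on per-plate z-scores that were not deposited.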 Unmarked entries are inactive. Not stated in the record: the amount of reagent, the time to read-out.

gene | dsRNA | Kc cell number, rep 1 | Kc cell number, rep 2 | S2R+ cell number, rep 1 | S2R+ cell number, rep 2
CG32110 | DRSC09220 | 1.36e6 | 1.45e6 | 1.11e6 | 1.28e6
aust (australin) | DRSC02558 | 1.46e6 | 1.56e6 | 1.14e6 | 1.33e6
Phae1 (Phaedra 1) | DRSC02554 | 1.69e6 | 1.90e6 | 1.22e6 | 1.22e6
zyd (zydeco) | DRSC20716 | 1.54e6 | 1.59e6 | 1.09e6 | 1.21e6
CG32801 | DRSC17964 | 1.52e6 | 1.48e6 | 1.05e6 | 1.14e6
ZnT86D (Zinc transporter 86D) | DRSC16091 | 1.58e6 | 1.56e6 | 1.18e6 | 1.27e6
Hsp60A (Heat shock protein 60A) | DRSC20254 | 6.21e5 | – | 9.20e5 | –
CCKLR-17D3 (Cholecystokinin-like receptor at 17D3) | DRSC20015 | 1.74e6 | 1.77e6 | 1.01e6 | 1.19e6
CCKLR-17D3 (Cholecystokinin-like receptor at 17D3) | DRSC20017 | 1.51e6 | 1.51e6 | 1.00e6 | 1.12e6
CG2991 | DRSC00559 | 1.26e6 | 1.28e6 | 8.41e5 | 9.16e5
DNAlig3 (DNA ligase 3) | DRSC15201 | 1.49e6 | 1.46e6 | 1.32e6 | 1.41e6
CG32603 | DRSC19409 | 1.80e6 | 1.80e6 | 1.11e6 | 1.19e6
CG6664 | DRSC10690 | 1.56e6 | 1.63e6 | 1.14e6 | 1.23e6
CG17105 | DRSC02574 | 1.70e6 | 1.66e6 | 1.28e6 | 1.54e6
ND-MNLL (NADH dehydrogenase (ubiquinone) MNLL subunit) | DRSC18159 | 1.52e6 | 1.49e6 | 9.22e5 | 1.04e6
stol (stolid) | DRSC01956 | 1.48e6 | 1.56e6 | 1.21e6 | 1.38e6
CG7840 | DRSC03075 | 1.25e6 | 1.44e6 | 5.67e5 | 7.80e5
Npc2h (Niemann-Pick type C-2h) | DRSC14297 | 1.54e6 | 1.58e6 | 1.03e6 | 1.18e6
kappaTry | DRSC06146 | 1.51e6 | 1.50e6 | 1.18e6 | 1.32e6
nanos | DRSC17018 | 1.41e6 | 1.40e6 | 1.01e6 | 1.09e6
Cyp6u1 (Cytochrome P450 6u1) | DRSC05015 | 1.33e6 | 1.37e6 | 1.11e6 | 1.24e6
ogre (optic ganglion reduced) | DRSC18809 | 6.58e5 | – | 8.95e5 | –
CG8476 | DRSC16426 | 1.40e6 | 1.36e6 | 1.10e6 | 1.19e6
LS2 (Large Subunit 2) | DRSC04340 | 1.64e6 | 1.64e6 | 1.27e6 | 1.42e6
lig (lingerer) | DRSC07246 | 1.36e6 | 1.47e6 | 7.58e5 | 8.32e5
lig (lingerer) | DRSC07247 | 1.41e6 | 1.62e6 | 9.47e5 | 1.09e6
ChAT (Choline acetyltransferase) | DRSC13314 | 1.60e6 | 1.58e6 | 1.03e6 | 1.17e6
ChAT (Choline acetyltransferase) | DRSC16609 | 1.22e6 | 1.23e6 | 1.10e6 | 1.17e6
alphaSnap (alpha Soluble NSF attachment protein) | DRSC11285 | 1.58e6 | 1.64e6 | 8.50e5 | 9.19e5
Tm1 (Tropomyosin 1) | DRSC13082 | 1.45e6 | 1.62e6 | 1.14e6 | 1.25e6
Tm1 (Tropomyosin 1) | DRSC13083 | 1.45e6 | 1.57e6 | 9.78e5 | 1.18e6
Tm1 (Tropomyosin 1) | DRSC16886 | 1.65e6 | 1.68e6 | 1.33e6 | 1.37e6
CG30423 | DRSC04013 | 1.41e6 | 1.50e6 | 9.74e5 | 1.05e6
CG14632 (retired record) | DRSC17942 | 1.47e6 | 1.44e6 | 1.02e6 | 1.11e6
Cpr67Fa1 (Cuticular protein 67Fa1) | DRSC10932 | 1.30e6 | 1.36e6 | 1.25e6 | 1.27e6
ATPsynC (ATP synthase, subunit C) | DRSC15236 | 4.49e5 | – | 6.53e5 | –
lt (light) | DRSC03759 | 1.41e6 | 1.51e6 | 1.23e6 | 3.26e5
CG10132 | DRSC02013 | 1.31e6 | 1.38e6 | 1.26e6 | 1.31e6
CG17327 | DRSC15225 | 1.19e6 | 1.23e6 | 9.05e5 | 1.09e6
CG3008 | DRSC00560 | 1.50e6 | 1.41e6 | 1.13e6 | 1.25e6
Vha36-1 (Vacuolar H[+] ATPase 36kD subunit 1) | DRSC07098 | 1.34e6 | 1.37e6 | 1.06e6 | 1.14e6
Rfk (Riboflavin kinase) | DRSC15454 | 1.65e6 | 1.64e6 | 1.35e6 | 1.39e6
l(3)72Dr (lethal (3) 72Dr) | DRSC10478 | 1.33e6 | 1.42e6 | 1.29e6 | 1.43e6
Spn27A (Serpin 27A) | DRSC03608 | 1.46e6 | 1.34e6 | 1.15e6 | 1.27e6
CG12560 | DRSC02174 | 1.51e6 | 1.62e6 | 1.22e6 | 1.36e6
CG10435 | DRSC14246 | 1.51e6 | 1.61e6 | 1.04e6 | 1.15e6
REG (Proteasome regulator gamma) | DRSC20273 | 1.47e6 | 1.46e6 | 1.02e6 | 1.09e6
CG5033 | DRSC07410 | 1.26e6 | 1.36e6 | 1.02e6 | 1.08e6
Fkbp12 (FK506-binding protein 12kD) | DRSC07425 | 1.51e6 | 1.58e6 | 1.16e6 | 1.24e6
Gr93a (Gustatory receptor 93a) | DRSC14593 | 1.20e6 | 1.35e6 | 9.90e5 | 1.13e6
CG14367 | DRSC14829 | 1.23e6 | 1.34e6 | 1.14e6 | 1.24e6
Ogdh (Oxoglutarate dehydrogenase) | DRSC09854 | 1.69e6 | 1.76e6 | 1.49e6 | 1.50e6
Ogdh (Oxoglutarate dehydrogenase) | DRSC09855 | 1.34e6 | 1.53e6 | 1.12e6 | 1.25e6
CG7650 | DRSC10898 | 1.64e6 | 1.63e6 | 1.19e6 | 1.36e6
Mvb12 (Multivesicular body subunit 12) | DRSC20027 | 1.50e6 | 1.51e6 | 1.14e6 | 1.21e6
CG8010 | DRSC20072 | 1.61e6 | 1.63e6 | 1.12e6 | 1.24e6
Tig (Tiggrin) | DRSC03456 | 1.37e6 | 1.23e6 | 9.17e5 | 1.04e6
mRpS18B (mitochondrial ribosomal protein S18B) | DRSC02107 | 1.30e6 | 1.41e6 | 1.21e6 | 1.20e6
amd (alpha methyl dopa-resistant) | DRSC02608 | 1.62e6 | 1.70e6 | 1.23e6 | 3.01e5
amd (alpha methyl dopa-resistant) | DRSC03483 | 1.49e6 | 1.53e6 | 1.21e6 | 3.49e5
